According to the supplement of paper PMC10626197:
Structures can show the parent of a compound that is named as a salt. Some well-known active drugs show little effect in this data set, so a weak value is uncertain.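 Drug pairs were tested on MCF7 breast cancer cells in a dose grid. On every plate, solvent-only DMSO wells served as the untreated reference, and a doxorubicin series served as the total-kill control. No hit threshold applies to the viability readings.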

System: MCF7
Assay: cell viability relative to DMSO control (raw); higher = more viable cells
Conditions: exposure time 72 h
Method: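 MCF7 cells, 1000 cells/well in 384-well plates, treated with 6x6 dose matrices of drug pairs (1:3 serial dilutions, DMSO as lowest dose) for 72 h at 37 °C. Viability read by CellTiter-Glo luminescence, 3 biological replicates. Normalised viability sets 0% at the highest doxorubicin dose and 100% at the 0,0 µM control per combination.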

CC[C@]1(O)C[C@@H]2CN(CCc3c([nH]c4ccccc34)[C@@](C(=O)OC)(c3cc4c(cc3OC)N(C)[C@H]3[C@@](O)(C(=O)OC)[C@H](OC(C)=O)[C@]5(CC)C=CCN6CC[C@]43[C@@H]65)C2)C1 [Vinblastine] + Cc1ncc(NC(=O)c2ccc(CN3CCN(C)CC3)c(C(F)(F)F)c2)cc1Nc1nccc(-c2cccnc2)n1 [Flumatinib (mesylate)]
cell viability [%]
Conditions | drug 2 concentration 0 µM | drug 2 concentration 0.617284 µM | drug 2 concentration 1.85185 µM | drug 2 concentration 5.55556 µM | drug 2 concentration 16.6667 µM | drug 2 concentration 50 µM
drug 1 concentration 0.00246914 µM | 72.4 | 71.83 | 68.9 | 73.7 | 1.3 | 0.2
drug 1 concentration 0.00740741 µM | 76.8 | 78.7 | 77.2 | 82.1 | 2.27 | 0.161
drug 1 concentration 0.0222222 µM | 79.7 | 81.2 | 85.3 | 86.9 | 1.01 | 0.282
drug 1 concentration 0.0666667 µM | 75.3 | 79.2 | 78.55 | 66.5 | 1.24 | 0.149
drug 1 concentration 0.2 µM | 73.9 | 79 | 73.7 | 64.6 | 50.5 | 0.415

CC[C@]1(O)C[C@H]2CN(CCc3c([nH]c4ccccc34)[C@@](C(=O)OC)(c3cc4c(cc3OC)N(C=O)[C@H]3[C@@](O)(C(=O)OC)[C@H](OC(C)=O)[C@]5(CC)C=CCN6CC[C@]43[C@@H]65)C2)C1 [Vincristine] + C=CC(=O)Nc1cccc(Nc2nc(Nc3ccc(OCCOC)cc3)ncc2F)c1 [Spebrutinib]
cell viability [%]
Conditions | drug 2 concentration 0 µM | drug 2 concentration 0.37037 µM | drug 2 concentration 1.11111 µM | drug 2 concentration 3.33333 µM | drug 2 concentration 10 µM | drug 2 concentration 30 µM
drug 1 concentration 0.0037037 µM | 75.3 | 81.1 | 79.3 | 70.9 | 52.7 | 8.76
drug 1 concentration 0.0111111 µM | 86.6 | 92.1 | 88.6 | 73.3 | 56.2 | 11.9
drug 1 concentration 0.0333333 µM | 80 | 87.4 | 87.6 | 78.6 | 55.3 | 16.1
drug 1 concentration 0.1 µM | 84.7 | 90.7 | 88.3 | 79.5 | 61.3 | 11.1
drug 1 concentration 0.3 µM | 80.2 | 89.9 | 86.2 | 85.8 | 64.3 | 7.62

CC[C@]1(O)C[C@H]2CN(CCc3c([nH]c4ccccc34)[C@@](C(=O)OC)(c3cc4c(cc3OC)N(C=O)[C@H]3[C@@](O)(C(=O)OC)[C@H](OC(C)=O)[C@]5(CC)C=CCN6CC[C@]43[C@@H]65)C2)C1 [Vincristine] + CCCNC(=O)c1cn2ncnc(Nc3cc(C(=O)NC4CC4)ccc3C)c2c1C [BMS-582949 (hydrochloride)]
cell viability [%]
Conditions | drug 2 concentration 0 µM | drug 2 concentration 0.37037 µM | drug 2 concentration 1.11111 µM | drug 2 concentration 3.33333 µM | drug 2 concentration 10 µM | drug 2 concentration 30 µM
drug 1 concentration 0.0037037 µM | 106 | 98.8 | 105 | 96.6 | 95.3 | 92.6
drug 1 concentration 0.0111111 µM | 117 | 116 | 116 | 113 | 105 | 93.1
drug 1 concentration 0.0333333 µM | 117.5 | 111 | 115 | 115 | 103 | 99.8
drug 1 concentration 0.1 µM | 99.8 | 102 | 100.9 | 98.2 | 93.7 | 86.52
drug 1 concentration 0.3 µM | 97.5 | 103 | 102 | 98.3 | 103 | 91.1

CC[C@]1(O)C[C@H]2CN(CCc3c([nH]c4ccccc34)[C@@](C(=O)OC)(c3cc4c(cc3OC)N(C=O)[C@H]3[C@@](O)(C(=O)OC)[C@H](OC(C)=O)[C@]5(CC)C=CCN6CC[C@]43[C@@H]65)C2)C1 [Vincristine] + CN1CCN(C2=Nc3cc(Cl)ccc3Nc3ccccc32)CC1 [Clozapine]
cell viability [%]
Conditions | drug 2 concentration 0 µM | drug 2 concentration 0.123457 µM | drug 2 concentration 0.37037 µM | drug 2 concentration 1.11111 µM | drug 2 concentration 3.33333 µM | drug 2 concentration 10 µM
drug 1 concentration 0.0037037 µM | 75.9 | 77.6 | 76.4 | 78 | 77.2 | 79.2
drug 1 concentration 0.0111111 µM | 78.5 | 81.5 | 83.5 | 87.1 | 81.4 | 83.6
drug 1 concentration 0.0333333 µM | 78.4 | 84.1 | 82.6 | 83.8 | 88.7 | 78.1
drug 1 concentration 0.1 µM | 77.5 | 80 | 79.2 | 77.2 | 77.5 | 70.2
drug 1 concentration 0.3 µM | 75.8 | 75.9 | 80.6 | 76.6 | 74.8 | 64.3

CC[C@]1(O)C[C@H]2CN(CCc3c([nH]c4ccccc34)[C@@](C(=O)OC)(c3cc4c(cc3OC)N(C=O)[C@H]3[C@@](O)(C(=O)OC)[C@H](OC(C)=O)[C@]5(CC)C=CCN6CC[C@]43[C@@H]65)C2)C1 [Vincristine] + CN1CCN(CCCN2c3ccccc3Sc3ccc(C(F)(F)F)cc32)CC1 [Trifluoperazine 2HCl]
cell viability [%]
Conditions | drug 2 concentration 0 µM | drug 2 concentration 0.185185 µM | drug 2 concentration 0.555556 µM | drug 2 concentration 1.66667 µM | drug 2 concentration 5 µM | drug 2 concentration 15 µM
drug 1 concentration 0.0037037 µM | 99.9 | 103 | 101 | 103 | 93.2 | 13.6
drug 1 concentration 0.0111111 µM | 115 | 109 | 111 | 113 | 81.9 | 11
drug 1 concentration 0.0333333 µM | 101 | 99.3 | 97 | 87 | 69.8 | 9.83
drug 1 concentration 0.1 µM | 92 | 90.4 | 86.6 | 80.6 | 67 | 7.19
drug 1 concentration 0.3 µM | 93.4 | 87.8 | 83.5 | 81.8 | 71.8 | 5.69

CC[C@]1(O)C[C@H]2CN(CCc3c([nH]c4ccccc34)[C@@](C(=O)OC)(c3cc4c(cc3OC)N(C=O)[C@H]3[C@@](O)(C(=O)OC)[C@H](OC(C)=O)[C@]5(CC)C=CCN6CC[C@]43[C@@H]65)C2)C1 [Vincristine] + CN1CCN(c2nc(C3=C(c4c[nH]c5ccccc45)C(=O)NC3=O)c3ccccc3n2)CC1 [Sotrastaurin]
cell viability [%]
Conditions | drug 2 concentration 0 µM | drug 2 concentration 0.0123457 µM | drug 2 concentration 0.037037 µM | drug 2 concentration 0.111111 µM | drug 2 concentration 0.333333 µM | drug 2 concentration 1 µM
drug 1 concentration 0.0037037 µM | 77.6 | 86.9 | 80.1 | 74 | 76.4 | 81
drug 1 concentration 0.0111111 µM | 83.9 | 78.7 | 77.4 | 82.3 | 76.8 | 77.5
drug 1 concentration 0.0333333 µM | 80.7 | 83.9 | 82.1 | 83.7 | 79.3 | 74.9
drug 1 concentration 0.1 µM | 76.3 | 77.7 | 73.7 | 74.6 | 71 | 69.1
drug 1 concentration 0.3 µM | 80.3 | 80.8 | 77 | 79.2 | 72.7 | 69.4

CC[C@]1(O)C[C@H]2CN(CCc3c([nH]c4ccccc34)[C@@](C(=O)OC)(c3cc4c(cc3OC)N(C=O)[C@H]3[C@@](O)(C(=O)OC)[C@H](OC(C)=O)[C@]5(CC)C=CCN6CC[C@]43[C@@H]65)C2)C1 [Vincristine] + CN(C)C(=O)C(CCN1CCC(O)(c2ccc(Cl)cc2)CC1)(c1ccccc1)c1ccccc1 [Loperamide (hydrochloride)]
cell viability [%]
Conditions | drug 2 concentration 0 µM | drug 2 concentration 0.185185 µM | drug 2 concentration 0.555556 µM | drug 2 concentration 1.66667 µM | drug 2 concentration 5 µM | drug 2 concentration 15 µM
drug 1 concentration 0.0037037 µM | 108 | 109 | 108 | 110 | 112 | 72.6
drug 1 concentration 0.0111111 µM | 110 | 117 | 117 | 116 | 101 | 78
drug 1 concentration 0.0333333 µM | 98.2 | 98.2 | 100 | 97.3 | 87.5 | 70.4
drug 1 concentration 0.1 µM | 89.6 | 89.7 | 95.2 | 92.1 | 87.5 | 67.8
drug 1 concentration 0.3 µM | 91.8 | 91.4 | 90.2 | 91 | 78.7 | 58.1
